# Some values come without a unit; they compare only within their column.
# Legend:
# [1] = Serum ethanolamine phospholipid ratios to PtdEt 16:0/18:0 (M01) in human cohorts
# [2] = Serum ethanolamine phospholipid levels in human cohorts (dementia severity, post-mortem pathology, age) by flow-injection MS/MS
# [3] = serum, females, post mortem SDAT
# [4] = serum, females, post mortem control
smiles,measurement,setting,value
"CCCCC/C=C\C/C=C\C/C=C\C/C=C\CCCC(=O)OC(CO/C=C\CCCCCCCCCCCCCCCC)COP(=O)(O)OCCN (centres unmarked) [Metabolite M22, Plasmenyl 18:0/20:4]",Ratio of ethanolamine phospholipid ratios to M01 between cohorts,"[1]; AD, All to CN, Male",0.669
same,Ratio of ethanolamine phospholipid ratios to M01 between cohorts,"[1]; ADAS 5-19 to CN, Male",0.714
same,Ratio of ethanolamine phospholipid ratios to M01 between cohorts,"[1]; ADAS 20-39 to CN, Male",0.661
same,Ratio of ethanolamine phospholipid ratios to M01 between cohorts,"[1]; ADAS 40-70 to CN, Male",0.603
same,"Average serum ethanolamine phospholipid ratio to M01, Mean","[1]; Cognitive Normal, Male, serum",9.309
same,"Average serum ethanolamine phospholipid ratio to M01, Mean","[1]; SDAT, ADAS 5-19, Male, serum",6.651
same,"Average serum ethanolamine phospholipid ratio to M01, Mean","[1]; SDAT, ADAS 20-39, Male, serum",6.157
same,"Average serum ethanolamine phospholipid ratio to M01, Mean","[1]; SDAT, ADAS 40-70, Male, serum",5.616
same,"Average serum ethanolamine phospholipid ratio to M01, Mean","[1]; SDAT_all, Male, serum",6.230
same,"Ethanolamine Phospholipid Ratio to M01, Mean, Age Ctl, 30-39, Female","[1]; human serum, females aged 30-39",8.971
same,"Ethanolamine Phospholipid Ratio to M01, Mean, Age Ctl, 40-49, Female","[1]; human serum, females aged 40-49",9.244
same,"Ethanolamine Phospholipid Ratio to M01, Mean, Age Ctl, 50-59, Female","[1]; human serum, females aged 50-59",8.625
same,"Ratio of Ethanolamine Phospholipid Ratio to M01, 50-59 vs. 40-49, Female","[1]; human serum, females aged 50-59 vs. females aged 40-49",0.933
same,"Ethanolamine Phospholipid Ratio to M01, Mean, Age Ctl, 60-69, Female","[1]; human serum, females aged 60-69",6.263
same,"Ratio of Ethanolamine Phospholipid Ratio to M01, 60-69 vs. 40-49, Female","[1]; human serum, females aged 60-69 vs. females aged 40-49",0.678
same,"Ethanolamine Phospholipid Ratio to M01, Mean, Age Ctl, 70+_Female","[1]; human serum, females aged 70+",6.923
same,"Ratio of Ethanolamine Phospholipid Ratio to M01, 70+ vs. 40-49, Female","[1]; human serum, females aged 70+ vs. females aged 40-49",0.749
same,"Ratio of Ethanolamine Phospholipid Ratio to M01, 50-59 vs. 40-49, Male","[1]; human serum, males aged 50-59 vs. males aged 40-49",1.162
same,"Ratio of Ethanolamine Phospholipid Ratio to M01, 60-69 vs. 40-49, Male","[1]; human serum, males aged 60-69 vs. males aged 40-49",0.970
same,"Ratio of Ethanolamine Phospholipid Ratio to M01, 70+ vs. 40-49, Male","[1]; human serum, males aged 70+ vs. males aged 40-49",0.942
same,"Ratio of ethanolamine phospholipid ratio to M01, ADAS 5-19 to CN, Female","[1]; serum, females, ADAS 5-19 vs cognitive normal",0.873
same,"Ratio of ethanolamine phospholipid ratio to M01, ADAS 20-39 to 5-19, Female","[1]; serum, females, ADAS 20-39 vs ADAS 5-19",0.949
same,"Ratio of ethanolamine phospholipid ratio to M01, ADAS 20-39 to CN, Female","[1]; serum, females, ADAS 20-39 vs cognitive normal",0.828
same,"Ratio of ethanolamine phospholipid ratio to M01, ADAS 40-70 to 5-19, Female","[1]; serum, females, ADAS 40-70 vs ADAS 5-19",0.755
same,"Ratio of ethanolamine phospholipid ratio to M01, ADAS 40-70 to 20-39, Female","[1]; serum, females, ADAS 40-70 vs ADAS 20-39",0.795
same,"Ratio of ethanolamine phospholipid ratio to M01, ADAS 40-70 to CN, Female","[1]; serum, females, ADAS 40-70 vs cognitive normal",0.659
same,"Ethanolamine phospholipid ratio to M01, Mean, SDAT, ADAS 5-19, Female","[1]; serum, females, SDAT ADAS 5-19",7.041
same,"Ethanolamine phospholipid ratio to M01, Mean, SDAT, ADAS 20-39, Female","[1]; serum, females, SDAT ADAS 20-39",6.681
same,"Ethanolamine phospholipid ratio to M01, Mean, SDAT, ADAS 40-70, Female","[1]; serum, females, SDAT ADAS 40-70",5.313
same,"Ratio of ethanolamine phospholipid ratio to M01, AD, All to CN, Female","[1]; serum, females, all AD vs cognitive normal",0.782
same,"Ethanolamine phospholipid ratio to M01, Mean, SDAT_all Female","[1]; serum, females, all SDAT",6.310
same,"Ratio of ethanolamine phospholipid ratio to M01, Autopsy AD vs. Control, Female","[1]; serum, females, autopsy AD vs post mortem control",0.831
same,"Ethanolamine phospholipid ratio to M01, Mean, Cognitive Normal, Female","[1]; serum, females, cognitive normal",8.068
same,"Ethanolamine phospholipid ratio to M01, Mean, Post Mortem SDAT Female",[1]; [3],1.480
same,"Ethanolamine phospholipid ratio to M01, Mean, Post Mortem Ctl, Female",[1]; [4],1.782
same,"Ratio of ethanolamine phospholipid ratio to M01, ADAS 20-39 to 5-19, Male","[1]; serum, males, SDAT ADAS 20-39 vs ADAS 5-19",0.926
same,"Ratio of ethanolamine phospholipid ratio to M01, ADAS 40-70 to 5-19, Male","[1]; serum, males, SDAT ADAS 40-70 vs ADAS 5-19",0.844
same,"Ratio of ethanolamine phospholipid ratio to M01, ADAS 40-70 to 20-39, Male","[1]; serum, males, SDAT ADAS 40-70 vs ADAS 20-39",0.912
same,"Ethanolamine phospholipid ratio to M01, Mean, Age Ctl, 30-39, Male","[1]; serum, males, age control 30-39",8.811
same,"Ethanolamine phospholipid ratio to M01, Mean, Age Ctl, 40-49, Male","[1]; serum, males, age control 40-49",7.346
same,"Ethanolamine phospholipid ratio to M01, Mean, Age Ctl, 50-59, Male","[1]; serum, males, age control 50-59",8.537
same,"Ethanolamine phospholipid ratio to M01, Mean, Age Ctl, 60-69, Male","[1]; serum, males, age control 60-69",7.124
same,"Ethanolamine phospholipid ratio to M01, Mean, Age Ctl, 70+_Male","[1]; serum, males, age control 70+",6.920
same,"Ethanolamine phospholipid ratio to M01, Mean, Post Mortem SDAT Male","[1]; serum, males, post mortem SDAT",1.199
same,"Ratio of ethanolamine phospholipid ratio to M01, SDAT vs Control (post mortem, males)","[1]; serum, males, post mortem SDAT vs post mortem control",0.634
same,"Ethanolamine phospholipid ratio to M01, Mean, Post Mortem Ctl, Male","[1]; serum, males, post mortem control",1.890
same,Ratio of serum levels,"[2]; AD, All to CN, Male",0.708
same,Ratio of serum levels,"[2]; ADAS 5-19 to CN, Male",0.758
same,Ratio of serum levels,"[2]; ADAS 20-39 to 5-19, Male",0.917
same,Ratio of serum levels,"[2]; ADAS 20-39 to CN, Male",0.695
same,Ratio of serum levels,"[2]; ADAS 40-70 to 5-19, Male",0.791
same,Ratio of serum levels,"[2]; ADAS 40-70 to 20-39, Male",0.863
same,Ratio of serum levels,"[2]; ADAS 40-70 to CN, Male",0.600
same,"Serum level, Mean","[2]; Cognitive Normal, Female",0.933
same,"Average serum level, Mean","[2]; Cognitive Normal, Male",1.040
same,"Serum level, Mean","[2]; Post Mortem Ctl, Male",0.217
same,"Serum level, Mean",[2]; Post Mortem SDAT Male,0.106
same,Ratio of serum levels,"[2]; Post mortem SDAT vs Control, Male",0.486
same,"Serum level, Mean","[2]; SDAT, ADAS 5-19, Female",0.753
same,"Average serum level, Mean","[2]; SDAT, ADAS 5-19, Male",0.789
same,"Serum level, Mean","[2]; SDAT, ADAS 20-39, Female",0.738
same,"Average serum level, Mean","[2]; SDAT, ADAS 20-39, Male",0.723
same,"Serum level, Mean","[2]; SDAT, ADAS 40-70, Female",0.620
same,"Average serum level, Mean","[2]; SDAT, ADAS 40-70, Male",0.624
same,"Serum level, Mean","[2]; SDAT_all, Female",0.702
same,"Average serum level, Mean","[2]; SDAT_all, Male",0.736
same,"Ratio, ADAS 5-19 to CN, Female","[2]; serum level ratio, females, ADAS 5-19 vs CN",0.807
same,"Ratio, ADAS 20-39 to 5-19, Female","[2]; serum level ratio, females, ADAS 20-39 vs ADAS 5-19",0.979
same,"Ratio, ADAS 20-39 to CN, Female","[2]; serum level ratio, females, ADAS 20-39 vs CN",0.790
same,"Ratio, ADAS 40-70 to 5-19, Female","[2]; serum level ratio, females, ADAS 40-70 vs ADAS 5-19",0.824
same,"Ratio, ADAS 40-70 to 20-39, Female","[2]; serum level ratio, females, ADAS 40-70 vs ADAS 20-39",0.841
same,"Ratio, ADAS 40-70 to CN, Female","[2]; serum level ratio, females, ADAS 40-70 vs CN",0.665
same,"Ratio, 50-59 vs. 40-49, Female","[2]; serum level ratio, females, age 50-59 vs 40-49",0.832
same,"Ratio, 60-69 vs. 40-49, Female","[2]; serum level ratio, females, age 60-69 vs 40-49",0.741
same,"Ratio, 70+ vs. 40-49, Female","[2]; serum level ratio, females, age 70+ vs 40-49",0.817
same,"Ratio, AD, All to CN, Female","[2]; serum level ratio, females, all AD vs cognitively normal",0.752
same,"Ratio, Autopsy AD vs. Control, Female","[2]; serum level ratio, females, autopsy AD vs control",0.593
same,"Ratio, 50-59 vs. 40-49, Male","[2]; serum level ratio, males, age 50-59 vs 40-49",1.179
same,"Ratio, 60-69 vs. 40-49, Male","[2]; serum level ratio, males, age 60-69 vs 40-49",1.183
same,"Ratio, 70+ vs. 40-49, Male","[2]; serum level ratio, males, age 70+ vs 40-49",1.149
same,"Mean serum level, Age Ctl, 30-39, Female","[2]; serum, females, age 30-39",0.938
same,"Mean serum level, Age Ctl, 40-49, Female","[2]; serum, females, age 40-49",1.025
same,"Mean serum level, Age Ctl, 50-59, Female","[2]; serum, females, age 50-59",0.853
same,"Mean serum level, Age Ctl, 60-69, Female","[2]; serum, females, age 60-69",0.759
same,"Mean serum level, Age Ctl, 70+, Female","[2]; serum, females, age 70+",0.837
same,"Mean serum level, Post Mortem SDAT, Female",[2]; [3],0.168
same,"Mean serum level, Post Mortem Ctl, Female",[2]; [4],0.283
same,"Mean serum level, Age Ctl, 30-39, Male","[2]; serum, males, age 30-39",1.054
same,"Mean serum level, Age Ctl, 40-49, Male","[2]; serum, males, age 40-49",0.788
same,"Mean serum level, Age Ctl, 50-59, Male","[2]; serum, males, age 50-59",0.930
same,"Mean serum level, Age Ctl, 60-69, Male","[2]; serum, males, age 60-69",0.933
same,"Mean serum level, Age Ctl, 70+, Male","[2]; serum, males, age 70+",0.906

# — patent publication US9517222B2, “Method for the treatment of senile dementia of the Alzheimer's type” (Phenomenome Discoveries Inc., priority 2007, dated 2016)
